Measured values published in paper PMC13329807.
Results are given in words; binding and its absence hold for the method and conditions named. Binding seen in cells or lysates may run through a third protein. Some binding calls cover weakened binding; strength is not graded here. Where a sequence is shown, tags or fusion partners need not be part of it.

The chains behind the UniProt entries cited, without tags or fusion partners.
UniProt P35240: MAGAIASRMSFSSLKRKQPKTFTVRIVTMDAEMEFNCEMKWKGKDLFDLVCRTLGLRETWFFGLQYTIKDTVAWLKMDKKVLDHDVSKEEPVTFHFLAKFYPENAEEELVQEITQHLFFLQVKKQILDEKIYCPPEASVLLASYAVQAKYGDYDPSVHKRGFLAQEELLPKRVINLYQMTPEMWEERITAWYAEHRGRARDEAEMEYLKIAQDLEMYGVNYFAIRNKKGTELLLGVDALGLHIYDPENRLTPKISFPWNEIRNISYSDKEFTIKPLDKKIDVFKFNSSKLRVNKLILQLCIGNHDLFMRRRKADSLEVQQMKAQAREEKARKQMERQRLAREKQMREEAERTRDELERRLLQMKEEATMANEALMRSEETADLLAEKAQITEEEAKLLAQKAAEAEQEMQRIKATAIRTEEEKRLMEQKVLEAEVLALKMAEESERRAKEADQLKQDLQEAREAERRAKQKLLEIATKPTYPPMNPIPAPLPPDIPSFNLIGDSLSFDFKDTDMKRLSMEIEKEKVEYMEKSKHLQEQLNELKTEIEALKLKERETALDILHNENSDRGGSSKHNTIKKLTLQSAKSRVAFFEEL
UniProt P46937: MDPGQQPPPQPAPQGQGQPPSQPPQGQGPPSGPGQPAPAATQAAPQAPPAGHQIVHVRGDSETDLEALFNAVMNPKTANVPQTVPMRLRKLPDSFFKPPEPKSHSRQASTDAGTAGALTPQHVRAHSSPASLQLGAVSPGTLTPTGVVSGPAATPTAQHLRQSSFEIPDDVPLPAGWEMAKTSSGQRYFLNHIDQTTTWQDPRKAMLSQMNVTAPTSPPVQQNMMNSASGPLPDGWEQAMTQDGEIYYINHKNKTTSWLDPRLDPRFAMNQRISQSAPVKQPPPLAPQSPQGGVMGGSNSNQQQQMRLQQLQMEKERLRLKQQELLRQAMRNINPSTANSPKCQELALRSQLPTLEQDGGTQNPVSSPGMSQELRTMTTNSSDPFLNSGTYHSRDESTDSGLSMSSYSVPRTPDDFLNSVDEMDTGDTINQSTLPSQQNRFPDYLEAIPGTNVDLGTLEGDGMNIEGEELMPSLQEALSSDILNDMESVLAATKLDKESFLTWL

Target: T1, Purified human ARHGAP18 (N-terminal SUMO-HIS-tagged), immobilised on NiNTA beads (human) (UniProt Q8N392)
T1 sequence: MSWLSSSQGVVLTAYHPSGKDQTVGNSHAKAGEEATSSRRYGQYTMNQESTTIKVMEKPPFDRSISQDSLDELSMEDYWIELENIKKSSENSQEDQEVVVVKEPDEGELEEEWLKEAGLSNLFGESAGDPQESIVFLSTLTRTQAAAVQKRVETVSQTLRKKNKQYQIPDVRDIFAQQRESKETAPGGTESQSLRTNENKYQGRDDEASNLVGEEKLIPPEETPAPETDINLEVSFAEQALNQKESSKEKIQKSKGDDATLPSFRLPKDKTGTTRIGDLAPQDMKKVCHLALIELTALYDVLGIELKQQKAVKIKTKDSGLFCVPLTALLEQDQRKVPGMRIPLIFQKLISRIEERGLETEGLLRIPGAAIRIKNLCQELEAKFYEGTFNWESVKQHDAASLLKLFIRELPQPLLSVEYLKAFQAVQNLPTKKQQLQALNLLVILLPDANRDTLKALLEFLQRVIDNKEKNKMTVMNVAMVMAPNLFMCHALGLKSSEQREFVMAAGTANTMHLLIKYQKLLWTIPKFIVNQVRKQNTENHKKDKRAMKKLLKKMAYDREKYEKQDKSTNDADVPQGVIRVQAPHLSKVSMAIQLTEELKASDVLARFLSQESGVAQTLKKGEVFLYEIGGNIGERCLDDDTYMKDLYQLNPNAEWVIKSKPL
Experiment: pull-down; SUMO-ARHGAP18 held on NiNTA beads; Jeg-3 WT cell lysate (25 mM Tris, 5% glycerol, 150 mM NaCl, 0.2% Triton X-100, phosphatase and protease inhibitors, 1 mM DTT) nutated with the beads 3 h at 4°C; four washes; Western blot; only the target purified

Substance | binding
GFP-merlin (from UniProt P35240 1-595) | binds
endogenous YAP (Yes-associated protein) (from UniProt P46937 1-504) | binds
